Measured values taken from publication PMC4811582.
Results are given in words; binding and its absence hold for the method and conditions named. Binding seen in cells or lysates may run through a third protein. Some entries that bind do so weakly or less than the wild type.

Chains of the proteins cited; added tags and fusions are not shown.
UniProt Q03135: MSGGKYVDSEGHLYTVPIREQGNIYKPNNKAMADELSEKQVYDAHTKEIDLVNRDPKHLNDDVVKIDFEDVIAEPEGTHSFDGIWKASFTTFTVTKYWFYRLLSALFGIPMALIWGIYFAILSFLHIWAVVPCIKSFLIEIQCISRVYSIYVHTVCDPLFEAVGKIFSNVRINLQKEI

Molecular target: caveolin-1 (human (endogenous in HUVEC)) (UniProt Q03135)
Assay: co-IP; HUVEC lysates pre-cleared with nonimmune IgG; immunoprecipitated with 2 ug anti-Cav1 antibody and protein A plus-Sepharose overnight at 4°C; immunoblot with anti-AdipoR1; cells with or without APN (5 ug/ml)

binding: binds
B1: adiponectin receptor 1 (receptor, UniProt Q96A54 1-375)
chain: MSSHKGSVVAQGNGAPASNREADTVELAELGPLLEEKGKRVIANPPKAEEEQTCPVPQEEEEEVRVLTLPLQAHHAMEKMEEFVYKVWEGRWRVIPYDVLPDWLKDNDYLLHGHRPPMPSFRACFKSIFRIHTETGNIWTHLLGFVLFLFLGILTMLRPNMYFMAPLQEKVVFGMFFLGAVLCLSFSWLFHTVYCHSEKVSRTFSKLDYSGIALLIMGSFVPWLYYSFYCSPQPRLIYLSIVCVLGISAIIVAQWDRFATPKHRQTRAGVFLGLGLSGVVPTMHFTIAEGFVKATTVGQMGWFFLMAVMYITGAGLYAARIPERFFPGKFDIWFQSHQIFHVLVVAAAFVHFYGVSNLQEFRYGLEGGCTDDTLL
